Results reported in publication PMC4597091.
No constants are given. Whether binding was seen depends on the method and setting.

Chains of the proteins cited; added tags and fusions are not shown. Residues count along the entry.
UniProt P00791, residues 60-385: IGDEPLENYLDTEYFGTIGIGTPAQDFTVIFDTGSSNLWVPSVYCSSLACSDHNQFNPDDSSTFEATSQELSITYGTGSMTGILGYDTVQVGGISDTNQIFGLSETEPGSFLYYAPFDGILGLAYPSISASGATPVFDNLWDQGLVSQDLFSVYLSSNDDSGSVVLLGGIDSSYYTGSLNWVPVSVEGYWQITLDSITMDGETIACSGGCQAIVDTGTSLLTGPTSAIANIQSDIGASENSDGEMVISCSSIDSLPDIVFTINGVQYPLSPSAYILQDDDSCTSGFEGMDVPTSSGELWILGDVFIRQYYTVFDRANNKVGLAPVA

T1: MmPepT1^ECD, extracellular domain of Mus musculus PepT1 (residues 391–580) (Mus musculus) (UniProt Q9JIP7)
T1 sequence: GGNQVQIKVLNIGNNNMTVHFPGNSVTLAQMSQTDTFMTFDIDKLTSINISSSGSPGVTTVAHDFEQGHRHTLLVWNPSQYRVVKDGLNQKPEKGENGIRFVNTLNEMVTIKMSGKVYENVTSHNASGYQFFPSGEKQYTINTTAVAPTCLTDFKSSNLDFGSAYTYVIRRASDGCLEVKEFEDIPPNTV

B1: MmPepT1^ECD, extracellular domain of Mus musculus PepT1 (residues 391–580) (domain or fragment, UniProt Q9JIP7 391-580)
chain: T1 sequence

Key:
[1] = molecular target: T1, MmPepT1^ECD, extracellular domain of Mus musculus PepT1 (residues 391–580) (Mus musculus); experiment: SPR; PepT1^ECD or PepT2^ECD immobilised on a CM5 chip by amine coupling (1,000 RU); ligand 7.81-1000 μM injected; 20°C; 25 mM MES pH 6.5, 100 mM NaCl, 10 mM CaCl2, 0.005% Tween 20, 2 mg/ml dextran, 1 mg/ml salmon sperm DNA; global 1:1 model; both purified
[2] = molecular target: T1, MmPepT1^ECD, extracellular domain of Mus musculus PepT1 (residues 391–580) (Mus musculus); experiment: crystal structure; MmPepT1^ECD, space group P2(1)2(1)2(1), two monomers in the asymmetric unit; 20% PEG 6000, 0.1 M MES pH 6.0, 0.2 M ammonium chloride, 4°C; both purified
[3] = molecular target: T1, MmPepT1^ECD, extracellular domain of Mus musculus PepT1 (residues 391–580) (Mus musculus); experiment: AUC; purified ECDs; s0(20,W) values 2.16 and 2.22, Lamm equation fit; both purified

Molecule | binding [1] | binding [2] | binding [3]
pepsin (from UniProt P00791 60-385) (enzyme) | no binding (tested: 1000 μM) |  | 
B1 |  | no binding | no binding
